Source: PMC8495450
No constants are given. Whether binding was seen depends on the method and setting. For some assays here: In cells and extracts the contact can be indirect. Some binding calls cover weakened binding; strength is not graded here. Tags and fused reporters may be left off the sequences shown. Values belong to the binder of their own block, whether it stands above or below them.

Sequences of proteins named here, by UniProt entry; tags and fusion partners are left off. A change or cut given only in a name is not applied to a line headed by its entry. A line that says so, or that is headed by a name, gives the form on record, which may keep a tag or linker. Residues count along the entry.
UniProt O75489: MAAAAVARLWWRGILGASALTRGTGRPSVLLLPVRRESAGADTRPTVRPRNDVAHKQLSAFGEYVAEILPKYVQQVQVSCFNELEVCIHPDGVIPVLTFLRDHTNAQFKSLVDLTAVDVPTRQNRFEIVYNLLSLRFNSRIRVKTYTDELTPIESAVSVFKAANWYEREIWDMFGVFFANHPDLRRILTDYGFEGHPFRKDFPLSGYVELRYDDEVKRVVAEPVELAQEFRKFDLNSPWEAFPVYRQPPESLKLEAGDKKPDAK
truncated Ndufs3 (tNdufs3), Myc/Flag‐tagged: residues 37-132 of O75489

Tests used:
[1] = biological target: Myc/Flag‐tagged Ndufs3 (full‐length) (UniProt O75489); assay: co-IP; 293T cells co-transfected with Flag-Pdia4 (or mutants) and Myc/Flag-tagged Ndufs3 or p22^phox (or mutants); lysates precipitated with anti-Myc (in Fig 6C also anti-Pdia4) antibody plus protein G beads; anti-Flag immunoblot
[2] = biological target: T1, Myc/Flag‐tagged p22^phox (full‐length) (UniProt P13498); assay: as above
T1 sequence: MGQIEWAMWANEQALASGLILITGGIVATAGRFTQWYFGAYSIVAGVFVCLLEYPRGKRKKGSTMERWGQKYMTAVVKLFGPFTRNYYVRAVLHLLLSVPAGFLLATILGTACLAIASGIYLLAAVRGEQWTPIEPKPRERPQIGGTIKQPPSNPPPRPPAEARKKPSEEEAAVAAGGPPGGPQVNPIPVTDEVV

[3] = biological target: truncated Ndufs3 (tNdufs3), Myc/Flag‐tagged (UniProt O75489); assay: as above
[4] = biological target: T2, truncated p22^phox (tp22^phox), Myc/Flag‐tagged (UniProt P13498); assay: as above
T2 sequence: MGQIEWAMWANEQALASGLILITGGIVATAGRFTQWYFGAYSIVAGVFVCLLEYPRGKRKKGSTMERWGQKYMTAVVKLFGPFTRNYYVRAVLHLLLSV

[5] = biological target: T3, 6×His‐Pdia4 (recombinant) (UniProt P13667); assay: condition: 32 ng Gst-TecSH3, equimolar to 50 ng His-Pdia4; pull-down; His-tagged Pdia4 (50 ng) incubated in vitro with an equimolar amount of Gst-TecSH3 (32 ng), Gst-Ndufs3 (41 ng) or Gst-p22^phox (33 ng); pull-down with nickel beads; anti-Gst and anti-His immunoblot; both purified
T3 sequence: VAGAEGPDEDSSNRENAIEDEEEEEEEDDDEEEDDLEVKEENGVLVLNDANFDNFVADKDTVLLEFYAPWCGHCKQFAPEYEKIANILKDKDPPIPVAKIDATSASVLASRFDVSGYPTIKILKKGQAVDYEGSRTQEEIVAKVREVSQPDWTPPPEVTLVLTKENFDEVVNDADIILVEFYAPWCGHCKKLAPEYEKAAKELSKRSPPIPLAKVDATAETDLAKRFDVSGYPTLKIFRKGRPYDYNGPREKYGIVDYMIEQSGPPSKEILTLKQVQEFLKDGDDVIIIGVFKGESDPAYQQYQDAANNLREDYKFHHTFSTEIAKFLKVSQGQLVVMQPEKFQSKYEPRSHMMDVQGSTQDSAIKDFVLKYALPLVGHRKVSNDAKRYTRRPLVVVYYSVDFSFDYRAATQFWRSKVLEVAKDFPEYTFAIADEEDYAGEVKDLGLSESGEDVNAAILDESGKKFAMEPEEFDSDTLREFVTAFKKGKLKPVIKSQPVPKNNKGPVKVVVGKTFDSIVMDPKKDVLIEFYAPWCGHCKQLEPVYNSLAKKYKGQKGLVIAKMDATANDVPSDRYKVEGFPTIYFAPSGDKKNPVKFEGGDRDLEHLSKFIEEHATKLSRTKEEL

Gst‐Pdia4 (recombinant) = biological target: T4, Gst‐Pdia4 (recombinant) (UniProt P13667); assay: pull-down; recombinant Gst-Pdia4 incubated with His-tagged Nox1, Nox2, Nox3 or Nox4 for 1 h, then Gst beads; immunoblot; both purified
T4 sequence: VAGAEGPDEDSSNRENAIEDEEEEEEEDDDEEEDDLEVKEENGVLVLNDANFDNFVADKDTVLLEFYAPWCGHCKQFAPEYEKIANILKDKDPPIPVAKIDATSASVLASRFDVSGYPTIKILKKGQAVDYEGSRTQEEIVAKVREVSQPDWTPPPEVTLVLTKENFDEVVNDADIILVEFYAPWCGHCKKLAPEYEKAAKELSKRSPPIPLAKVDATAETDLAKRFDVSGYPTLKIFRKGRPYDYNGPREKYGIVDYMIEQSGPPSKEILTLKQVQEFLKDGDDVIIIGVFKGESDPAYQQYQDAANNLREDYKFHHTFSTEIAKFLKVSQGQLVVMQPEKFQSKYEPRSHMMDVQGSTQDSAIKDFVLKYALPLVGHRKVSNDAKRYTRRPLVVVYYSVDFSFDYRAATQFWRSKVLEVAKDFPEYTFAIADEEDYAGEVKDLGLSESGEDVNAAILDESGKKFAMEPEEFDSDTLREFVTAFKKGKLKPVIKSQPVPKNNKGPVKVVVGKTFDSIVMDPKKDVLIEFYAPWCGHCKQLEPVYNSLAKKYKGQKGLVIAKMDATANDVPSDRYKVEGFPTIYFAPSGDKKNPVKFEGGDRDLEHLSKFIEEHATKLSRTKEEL

Flag‐tagged Pdia4 = biological target: T5, Flag‐tagged Pdia4 (UniProt P13667); assay: co-IP; 293T cells co-transfected with Flag-Pdia4 and Myc/Flag-tagged p22^phox or Ndufs3, treated with GHTT (28 μM, 30 min by the legend; 10 μg/ml, 2 h by the methods); anti-Pdia4 antibody plus protein G beads; anti-Flag immunoblot
T5 sequence: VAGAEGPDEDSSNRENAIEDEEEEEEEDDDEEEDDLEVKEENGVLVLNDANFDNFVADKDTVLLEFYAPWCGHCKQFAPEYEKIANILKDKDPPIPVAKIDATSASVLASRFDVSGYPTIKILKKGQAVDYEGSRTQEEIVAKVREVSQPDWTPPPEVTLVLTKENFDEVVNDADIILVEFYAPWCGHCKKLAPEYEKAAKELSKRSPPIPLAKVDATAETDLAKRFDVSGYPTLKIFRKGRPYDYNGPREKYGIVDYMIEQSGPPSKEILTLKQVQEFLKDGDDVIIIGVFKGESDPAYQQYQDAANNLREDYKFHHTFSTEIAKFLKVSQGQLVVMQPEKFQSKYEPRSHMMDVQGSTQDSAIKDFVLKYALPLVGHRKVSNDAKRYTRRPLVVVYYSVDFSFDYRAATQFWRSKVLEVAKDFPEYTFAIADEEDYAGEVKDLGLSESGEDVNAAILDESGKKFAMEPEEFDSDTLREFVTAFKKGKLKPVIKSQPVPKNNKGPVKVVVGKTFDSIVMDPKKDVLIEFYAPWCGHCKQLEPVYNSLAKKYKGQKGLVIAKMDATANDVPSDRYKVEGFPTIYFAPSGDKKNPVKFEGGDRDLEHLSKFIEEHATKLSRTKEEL

B1: Flag‐tagged Pdia4 (protein, UniProt P13667 21-645)
chain: VAGAEGPDEDSSNRENAIEDEEEEEEEDDDEEEDDLEVKEENGVLVLNDANFDNFVADKDTVLLEFYAPWCGHCKQFAPEYEKIANILKDKDPPIPVAKIDATSASVLASRFDVSGYPTIKILKKGQAVDYEGSRTQEEIVAKVREVSQPDWTPPPEVTLVLTKENFDEVVNDADIILVEFYAPWCGHCKKLAPEYEKAAKELSKRSPPIPLAKVDATAETDLAKRFDVSGYPTLKIFRKGRPYDYNGPREKYGIVDYMIEQSGPPSKEILTLKQVQEFLKDGDDVIIIGVFKGESDPAYQQYQDAANNLREDYKFHHTFSTEIAKFLKVSQGQLVVMQPEKFQSKYEPRSHMMDVQGSTQDSAIKDFVLKYALPLVGHRKVSNDAKRYTRRPLVVVYYSVDFSFDYRAATQFWRSKVLEVAKDFPEYTFAIADEEDYAGEVKDLGLSESGEDVNAAILDESGKKFAMEPEEFDSDTLREFVTAFKKGKLKPVIKSQPVPKNNKGPVKVVVGKTFDSIVMDPKKDVLIEFYAPWCGHCKQLEPVYNSLAKKYKGQKGLVIAKMDATANDVPSDRYKVEGFPTIYFAPSGDKKNPVKFEGGDRDLEHLSKFIEEHATKLSRTKEEL
binding [1]: binds | binding [2]: binds | binding [3]: binds | binding [4]: binds

B5: Myc/Flag‐tagged p22^phox (full‐length) (protein, UniProt P13498 1-195)
chain: MGQIEWAMWANEQALASGLILITGGIVATAGRFTQWYFGAYSIVAGVFVCLLEYPRGKRKKGSTMERWGQKYMTAVVKLFGPFTRNYYVRAVLHLLLSVPAGFLLATILGTACLAIASGIYLLAAVRGEQWTPIEPKPRERPQIGGTIKQPPSNPPPRPPAEARKKPSEEEAAVAAGGPPGGPQVNPIPVTDEVV
binding (Flag‐tagged Pdia4): no binding (condition: cells treated with GHTT (28 μM))

B6: His‐tagged Nox2 (recombinant) (protein, UniProt P04839 1-570)
chain: MGNWAVNEGLSIFVILVWLGLNVFLFVWYYRVYDIPPKFFYTRKLLGSALALARAPAACLNFNCMLILLPVCRNLLSFLRGSSACCSTRVRRQLDRNLTFHKMVAWMIALHSAIHTIAHLFNVEWCVNARVNNSDPYSVALSELGDRQNESYLNFARKRIKNPEGGLYLAVTLLAGITGVVITLCLILIITSSTKTIRRSYFEVFWYTHHLFVIFFIGLAIHGAERIVRGQTAESLAVHNITVCEQKISEWGKIKECPIPQFAGNPPMTWKWIVGPMFLYLCERLVRFWRSQQKVVITKVVTHPFKTIELQMKKKGFKMEVGQYIFVKCPKVSKLEWHPFTLTSAPEEDFFSIHIRIVGDWTEGLFNACGCDKQEFQDAWKLPKIAVDGPFGTASEDVFSYEVVMLVGAGIGVTPFASILKSVWYKYCNNATNLKLKKIYFYWLCRDTHAFEWFADLLQLLESQMQERNNAGFLSYNIYLTGWDESQANHFAVHHDEEKDVITGLKQKTLYGRPNWDNEFKTIASQHPNTRIGVFLCGPEALAETLSKQSISNSESGPRGVHFIFNKENF
binding (Gst‐Pdia4 (recombinant)): no binding

B7: His‐tagged Nox3 (recombinant) (protein, UniProt Q9HBY0 1-568)
chain: MMGCWILNEGLSTILVLSWLGINFYLFIDTFYWYEEEESFHYTRVILGSTLAWARASALCLNFNCMLILIPVSRNLISFIRGTSICCRGPWRRQLDKNLRFHKLVAYGIAVNATIHIVAHFFNLERYHWSQSEEAQGLLAALSKLGNTPNESYLNPVRTFPTNTTTELLRTIAGVTGLVISLALVLIMTSSTEFIRQASYELFWYTHHVFIVFFLSLAIHGTGRIVRGQTQDSLSLHNITFCRDRYAEWQTVAQCPVPQFSGKEPSAWKWILGPVVLYACERIIRFWRFQQEVVITKVVSHPSGVLELHMKKRGFKMAPGQYILVQCPAISSLEWHPFTLTSAPQEDFFSVHIRAAGDWTAALLEAFGAEGQALQEPWSLPRLAVDGPFGTALTDVFHYPVCVCVAAGIGVTPFAALLKSIWYKCSEAQTPLKLSKVYFYWICRDARAFEWFADLLLSLETRMSEQGKTHFLSYHIFLTGWDENQALHIALHWDENTDVITGLKQKTFYGRPNWNNEFKQIAYNHPSSSIGVFFCGPKALSRTLQKMCHLYSSADPRGVHFYYNKESF
binding (Gst‐Pdia4 (recombinant)): no binding

The remaining lines, values ahead:

binding [5]: no binding
B2: Gst‐TecSH3 (domain or fragment, UniProt P24604 178-238)
chain: NTEEIVVAMYDFQATEAHDLRLERGQEYIILEKNDLHWWRARDKYGSEGYIPSNYVTGKKS

binding (Gst‐Pdia4 (recombinant)): no binding
B3: His‐tagged Nox4 (recombinant) (protein, UniProt Q9NPH5 1-578)
chain: MAVSWRSWLANEGVKHLCLFIWLSMNVLLFWKTFLLYNQGPEYHYLHQMLGLGLCLSRASASVLNLNCSLILLPMCRTLLAYLRGSQKVPSRRTRRLLDKSRTFHITCGVTICIFSGVHVAAHLVNALNFSVNYSEDFVELNAARYRDEDPRKLLFTTVPGLTGVCMVVVLFLMITASTYAIRVSNYDIFWYTHNLFFVFYMLLTLHVSGGLLKYQTNLDTHPPGCISLNRTSSQNISLPEYFSEHFHEPFPEGFSKPAEFTQHKFVKICMEEPRFQANFPQTWLWISGPLCLYCAERLYRYIRSNKPVTIISVMSHPSDVMEIRMVKENFKARPGQYITLHCPSVSALENHPFTLTMCPTETKATFGVHLKIVGDWTERFRDLLLPPSSQDSEILPFIQSRNYPKLYIDGPFGSPFEESLNYEVSLCVAGGIGVTPFASILNTLLDDWKPYKLRRLYFIWVCRDIQSFRWFADLLCMLHNKFWQENRPDYVNIQLYLSQTDGIQKIIGEKYHALNSRLFIGRPRWKLLFDEIAKYNRGKTVGVFCCGPNSLSKTLHKLSNQNNSYGTRFEYNKESFS

binding [1]: no binding | binding [2]: no binding
B4: Flag‐tagged Pdia4^322–515 (non‐catalytic domains b and b') (domain or fragment, UniProt P13667 322-515)
chain: QYQDAANNLREDYKFHHTFSTEIAKFLKVSQGQLVVMQPEKFQSKYEPRSHMMDVQGSTQDSAIKDFVLKYALPLVGHRKVSNDAKRYTRRPLVVVYYSVDFSFDYRAATQFWRSKVLEVAKDFPEYTFAIADEEDYAGEVKDLGLSESGEDVNAAILDESGKKFAMEPEEFDSDTLREFVTAFKKGKLKPVIK
